From PubChem BioAssay AID493014 (National Center for Advancing Translational Sciences (NCATS), 2011)
In all, about 340,000 compounds went through this assay and about 170 (0.05%) were called active. This list was built around the results that the source calls inconclusive (neither active nor inactive); the mix of calls is not that of the screen. Calls come from the whole dose curve; as a rule, active = well fitted inhibition curve with a large enough effect in the signal ratio, with a control signal flat (not every such curve was filed as active); inconclusive = small, poorly fitted or top-dose-only effect, or effect the other way, or a change in a side signal; inactive = flat fitted curve, though single readings scatter; the % refers to the signal ratio. Where the call is inconclusive, the potency comes from a doubtful curve fit.

assay: qHTS Assay to Find Inhibitors of Chronic Active B-Cell Receptor Signaling; conditions: ABC-DLBCL IkBa-CBG/CBR reporter, luminescence ratio (green luciferase fused to IkBa over red control in TMD8 lymphoma cells), 4 h; activity change, negative = inhibition: at 46.1 µM (top of the series);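 for activity change, negative = inhibition: plate controls were basal doxycycline-induced cells for no effect and cells given 10 µM MG132 for full effect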
Method in brief: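 TMD8 ABC-DLBCL cells carrying doxycycline-inducible green luciferase fused to IkappaBalpha plus unfused red luciferase were exposed to compounds (up to 46 uM) for 4 hrs at 37C. Activity came from the overlap-corrected green/red luminescence ratio.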
Potency is the fitted concentration of half-maximal effect.

SMILES | Potency | activity change, negative = inhibition
O=c1c2ccccc2nc(/C=C/c2ccc(O)c(O)c2)n1-c1ccccc1 | inconclusive: 12.6 µM [falling, partial curve] | 
COC(=O)C1=C(c2ccc(OC(F)(F)F)cc2)C[C@@H]2CC[C@H]1N2C(=O)NCc1cc(C)oc1C(F)(F)F |  | inconclusive: -4.97%
O=C(O)c1cccc2c1NC(C(=O)O)C1CC(Sc3ccccc3[N+](=O)[O-])C(Cl)C21 (stereo not given) |  | inconclusive: -12.3%
Clc1ccc(C(OCCN2CCCCC2)c2ccccc2)cc1 (stereo not given) | inconclusive: 20.6 µM [falling, single point] | 
O=C(NC1CN2CCC1CC2)c1cc(Cl)c([N+](=O)[O-])c2nc[nH]c12 (stereo not given) |  | inconclusive: -0.689%
CC(C)(CN)CC(=O)O |  | inactive
Cc1ccc(O)c(C(=O)c2cc(C(=O)NCCC(C)C)c(=O)n(CCC(C)C)c2)c1 |  | inactive
O=C(O)C1(c2ccc(Cl)cc2)CCC1 |  | inconclusive: -7.84%
NP(=O)(OCCCc1ccccc1)Oc1ccc(Cl)cc1 (stereo not given) | inconclusive: 6.31 µM [falling, partial curve, poor fit] | 
Nc1cccc2c1C(=O)N(C(=O)/C=C/c1ccc(F)cc1)C2=O | inconclusive: 17.8 µM [falling, partial curve] | 
O=c1[nH]c(=S)n(Cc2ccc(F)cc2)c(O)c1C=NCC1CCCO1 (stereo not given) | inconclusive: 29.1 µM [falling, single point] | 
COc1ccc(CC2(CCc3ccccn3)C(=O)NC(=O)N(c3ccccc3C)C2=O)cc1OC (stereo not given) |  | inconclusive: 2.2%
Cc1cccc(N2C(=O)NC(=O)/C(=C\c3cnn(-c4ccccc4)c3)C2=O)c1 | inconclusive: 7.94 µM [rising, full curve, poor fit] | 
N#Cc1c(Cl)nc(Cl)c2c1CCN(Cc1ccccc1)C2 |  | inconclusive: -1.13%
C=CCN1C(=O)NC(=O)/C(=C/c2ccc(OC)c(COc3ccc(NC(C)=O)cc3)c2)C1=O | inconclusive: 28.2 µM [falling, single point] | 
CC1CC(C)CN(CC(=O)c2ccc(OC(F)F)cc2)C1 (stereo not given) |  | inconclusive: 5.88%
CC(Cc1ccccc1)NCCC(c1ccccc1)c1ccccc1 (stereo not given) |  | inconclusive: -5.65%
CC/C(=C\C=C\[C@@H]1C=C[C@@H]2CCC[C@H]2[C@@H]1C(=O)c1ccc[nH]1)[C@@H]1O[C@@H]([C@@H](C)C(=O)O)CC[C@@H]1C | inconclusive: 11.6 µM [rising, partial curve] | 
COc1ccc(CC(=O)Nc2ccc3c(C(F)(F)F)cc(=O)oc3c2)cc1OC |  | inactive
C[C@]12CC[C@H](O)C[C@H]1CC[C@@H]1[C@@H]2C[C@@H](O)[C@]2(C)[C@@H](C3=CC(=O)OC3)CC[C@]12O |  | inconclusive: -10.8%
FC(F)(F)c1ccccc1CNCCc1c[nH]c2ccccc12 |  | inactive
O=Cc1cn(Cc2cccc(F)c2)c2ccccc12 |  | inconclusive: -8.9%
Cc1cc(C=C2C(=O)N(C)C(=O)N(C)C2=O)c(C)n1-c1ccccc1 |  | inactive
O=C(CSC1c2ccccc2-c2ccccc21)N/N=C/c1ccccc1O |  | inconclusive: 0.639%
O=C1c2ccccc2-c2onc3ccc(NCc4ccco4)c1c23 |  | inconclusive: -2.39%

Quoted at random: 6 entries already listed, in no set order.
SMILES | Potency | activity change, negative = inhibition
O=C1c2ccccc2-c2onc3ccc(NCc4ccco4)c1c23 |  | inconclusive: -2.39%
Nc1cccc2c1C(=O)N(C(=O)/C=C/c1ccc(F)cc1)C2=O | inconclusive: 17.8 µM [falling, partial curve] | 
Clc1ccc(C(OCCN2CCCCC2)c2ccccc2)cc1 (stereo not given) | inconclusive: 20.6 µM [falling, single point] | 
O=C(CSC1c2ccccc2-c2ccccc21)N/N=C/c1ccccc1O |  | inconclusive: 0.639%
COC(=O)C1=C(c2ccc(OC(F)(F)F)cc2)C[C@@H]2CC[C@H]1N2C(=O)NCc1cc(C)oc1C(F)(F)F |  | inconclusive: -4.97%
Cc1ccc(O)c(C(=O)c2cc(C(=O)NCCC(C)C)c(=O)n(CCC(C)C)c2)c1 |  | inactive

Additional entries follow:

SMILES | Potency | activity change, negative = inhibition
CCCCNC(=O)Oc1c(Br)cc2sc(=O)oc2c1Br |  | inconclusive: 8.44%
CCC(C)NC(=O)CCC(=O)OC1O[C@H]2OC3(C)CC[C@H]4[C@H](C)CCC(C1C)C24OO3 (stereo not given in full) |  | inconclusive: -4.19%
COc1cc(NC(=O)c2cccc(C)c2)ccc1NC(=O)c1cc2ccccc2o1 |  | inconclusive: 2.13%
CCCOP(=O)(c1ccc(N(C)C)cc1)C(O)c1ccc(Cl)cc1 (stereo not given) |  | inconclusive: 4.05%
Cc1c(C(=O)Nc2ccccc2)c2cc(O)ccc2n1Cc1ccccc1 |  | inactive
CC(NCc1ccc(Cl)c(Cl)c1)C(O)c1ccccc1 (stereo not given) |  | inconclusive: 8.64%
C[n+]1c(-c2ccccc2)cc(-c2ccc(Cl)cc2)cc1-c1ccccc1 |  | inactive
C[C@]12CC[C@H](N)CC1=CCC1C2CC[C@@]2(C)C1CC[C@@H]2O (stereo not given in full) |  | inconclusive: -12.8%
CC(=O)Nc1ccccc1C(=O)OCC(=O)c1ccccc1Cl |  | inconclusive: -1.45%
COc1cc(/C=C2/C(=O)NC(=O)N(c3ccc(C)cc3)C2=O)cc(OC)c1OC |  | inconclusive: 0.209%
COCCNC(=O)c1c(N)n(Cc2ccco2)c2nc3ccccc3nc12 |  | inconclusive: 11.1%
O=P(c1ccc2c(c1)OCCO2)(N1CCOCC1)N1CCOCC1 |  | inconclusive: -3.36%
CCCCNC(=S)N/N=C/c1cccc(OCC)c1O |  | inconclusive: -4.1%
COC(=O)CCCC(NC(=S)N1CC2C[C@@H](C1)Cn1c2cccc1=O)C(=O)OC (stereo not given in full) |  | inactive
COc1ccccc1OCC#CCN1CCCC(C)C1 (stereo not given) |  | inconclusive: 7.96%
CCOc1ccc(-c2cc(C)[n+](CCN(CC)CC)c(-c3ccc(OCC)cc3)c2)cc1 | inconclusive: 35.5 µM [falling, single point] | 
COc1ccc(N2C(=O)NC(=O)/C(=C/c3cccc(OC(=O)c4cccs4)c3)C2=O)cc1Cl |  | inactive
COC(=O)C1=C(N)Oc2c(c(=O)oc3ccccc23)C1c1cccnc1 (stereo not given) | inconclusive: 2.91 µM [falling, full curve, poor fit] | 
CCCCC/C=C\C/C=C\C/C=C\C/C=C\CCCC(=O)Nc1ccc(O)cc1 |  | inconclusive: 10.3%
COC(=O)C1=C(c2ccc(OC(F)(F)F)cc2)C[C@@H]2CC[C@H]1N2C(=O)NCCCOC(C)C |  | inconclusive: 4.8%
COc1cccc(NP(=O)(Oc2ccc(Cl)cc2)Oc2ccc(Cl)cc2)c1 |  | inconclusive: 16.8%
CN(C)c1ccc(/C=C/C=C/c2sc3ccccc3[n+]2C)cc1 | inconclusive: 11.2 µM [falling, partial curve] | 
O=c1[nH]c(=S)n(C2CC2)c(O)c1/C=N/Nc1cccc2ccccc12 | inconclusive: 20.6 µM [falling, partial curve] | 
CCOC(=O)c1c(C)n(Cc2ccco2)c2c1cc(O)c1ccccc12 | inconclusive: 0.291 µM [rising, full curve, poor fit] | 
O=C1C(c2ccccc2)=C(N2CC2)c2ccccc21 |  | inconclusive: -2.79%

SMILES | Potency | activity change, negative = inhibition
COC(=O)c1cc(NC(=O)Nc2cccc(Cl)c2)ccc1Cl |  | inconclusive: 0.14%
CC(C)c1nnc(NC(=O)c2sc3ccccc3c2Cl)s1 | inconclusive: 25.1 µM [falling, partial curve] | 
COc1ccccc1C1C([N+](=O)[O-])=C(N)Oc2c1c(=O)oc1ccccc21 (stereo not given) | inconclusive: 14.1 µM [falling, partial curve] | 
CC(=O)C1(c2ccccc2)CCN(C(=O)C2CCC(=O)N(CCc3cccc(F)c3)C2)CC1 (stereo not given) |  | inactive
COc1ccccc1N1C(=O)NC(=O)/C(=C/c2ccc3c4c(cccc24)CC3)C1=O | inconclusive: 20.6 µM [falling, single point] | 
COc1ccc(Oc2cc(NC(=O)c3nn(C)cc3[N+](=O)[O-])cc([N+](=O)[O-])c2)cc1 | inconclusive: 3.66 µM [falling, single point] | 
COc1ccccc1N1C(=O)NC(=O)C(CCc2ccncc2)(CCc2ccncc2)C1=O | inconclusive: 5.8 µM [falling, partial curve, poor fit] | 
COC(=O)C1=C(c2ccc(F)cc2OCc2ccccc2)C[C@@H]2CC[C@H]1N2C(=O)NCc1ccccc1 | inconclusive: 16.4 µM [falling, partial curve, poor fit] | 
CN1CC(C(=O)c2ccc(F)cc2)C(c2ccc(F)cc2)C1 (stereo not given) |  | inactive
CC(=O)NC(Cc1ccc(N(CCCl)CCCl)cc1)C(=O)NCC(=O)NCC(=O)O (stereo not given) | inconclusive: 6.31 µM [falling, single point] | 
CCc1ccc(-n2c(O)c(C=NCCN(CC)CC)c(=O)[nH]c2=O)cc1 |  | inconclusive: 6.35%
O=C1NC(=S)N(c2ccc(Br)cc2)C(=O)/C1=C/N1CCN(C(=O)c2ccco2)CC1 |  | inconclusive: 3.31%
Cn1c(=O)oc2cc(S(=O)(=O)N3CCC(C(=O)N4CCc5ccccc5C4)CC3)ccc21 |  | inconclusive: -8.07%
O=C1NC(=S)NC(=O)C1=Cc1ccc(OCC(=O)N2CCCC2)cc1 |  | inactive
C/C(=N\N1CCCCC1)c1c(O)[nH]c(=O)[nH]c1=O |  | inconclusive: -21.2%
COC(=O)C1=C(c2ccc(Cl)c(C(F)(F)F)c2)C[C@@H]2CC[C@H]1N2C(=O)NCCCOC(C)C |  | inconclusive: -14.3%
CCOc1ccc2nc(NC(=O)c3cccn(Cc4ccc(C)cc4)c3=O)sc2c1 |  | inactive
O=C1CN=C(c2ccccc2)c2cc([N+](=O)[O-])ccc2N1 |  | inactive
CCn1c(=O)oc2cc(NC(=O)CCl)ccc21 | inconclusive: 20 µM [falling, partial curve, poor fit] | 
O=C1NC(=O)N(Cc2ccccc2)C(=O)/C1=C/C=C/c1ccco1 |  | inconclusive: -15.3%
CC(C)(C)n1cc(C(=O)c2ccccc2OCCCF)cn1 |  | inconclusive: -0.523%
COc1cc(OC)c2c(c1)O[C@@H](c1ccc(OC)c(OC)c1)[C@H](O)C2 | inconclusive: 35.5 µM [falling, partial curve, poor fit] | 
Cn1c(=O)c2c(ncn2CCCl)n(C)c1=O |  | inconclusive: 12.6%
CC[N+](CC)(CC)CCCOC(=O)C(O)(c1ccccc1)C1CCCCC1 (stereo not given) |  | inconclusive: 3.45%
Nc1nc(SCCC(F)=C(F)F)n[nH]1 |  | inactive
